The other results are listed elsewhere or left out.
Key:
Assay in all cases: log2 fold change, soluble protein after heating vs DMSO (PISA); higher = thermal stabilisation; K562 lysate, 10 uM; active = over 0.2 and 3.5 SD of the protein, either way, in both replicates (recomputed)
nilotinib = compound: Cc1cn(-c2cc(NC(=O)c3ccc(C)c(Nc4nccc(-c5cccnc5)n4)c3)cc(C(F)(F)F)c2)cn1 [nilotinib]
How it was run: (§1)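 K562 pellets were dounce-homogenised in PBS pH 7.4 with 1 mM MgCl2, and the crude extract at 1 mg/mL protein was treated with 10 μM compound for 30 min. Aliquots were heated for 3 min across 48°C-58°C, pooled, and brought to 0.5% NP-40 at 4°C; soluble protein was the supernatant after 21,000xg for 90 min. Soluble protein was quantified by TMTpro 16plex LC-MS/MS with channel sums equalised, and reported as log2 fold change in thermal stability against DMSO controls, with values from duplicates.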

Amino acid sequences for entries named in this document (tags omitted). A change or cut given only in a name is not applied to a line headed by its entry.
UniProt Q9H9A5, whole entry, looked up: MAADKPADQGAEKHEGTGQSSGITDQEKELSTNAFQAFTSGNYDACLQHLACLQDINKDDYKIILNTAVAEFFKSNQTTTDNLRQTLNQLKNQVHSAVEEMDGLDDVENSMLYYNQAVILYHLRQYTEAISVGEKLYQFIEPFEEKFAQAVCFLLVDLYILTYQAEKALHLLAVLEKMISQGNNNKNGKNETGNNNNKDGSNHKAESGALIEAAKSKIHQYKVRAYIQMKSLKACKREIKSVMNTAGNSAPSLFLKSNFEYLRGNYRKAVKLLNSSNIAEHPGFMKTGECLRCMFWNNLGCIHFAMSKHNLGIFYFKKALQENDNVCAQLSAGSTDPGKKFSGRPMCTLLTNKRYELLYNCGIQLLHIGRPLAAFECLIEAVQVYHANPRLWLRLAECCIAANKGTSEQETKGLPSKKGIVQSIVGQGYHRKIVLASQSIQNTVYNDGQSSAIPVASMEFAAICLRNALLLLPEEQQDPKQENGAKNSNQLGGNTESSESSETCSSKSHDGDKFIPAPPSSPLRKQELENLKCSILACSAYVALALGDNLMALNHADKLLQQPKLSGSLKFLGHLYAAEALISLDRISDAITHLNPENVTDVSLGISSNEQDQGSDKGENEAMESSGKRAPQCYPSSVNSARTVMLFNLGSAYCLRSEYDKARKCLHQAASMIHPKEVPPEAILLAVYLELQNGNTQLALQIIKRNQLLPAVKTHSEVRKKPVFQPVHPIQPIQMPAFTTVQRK
UniProt O14548: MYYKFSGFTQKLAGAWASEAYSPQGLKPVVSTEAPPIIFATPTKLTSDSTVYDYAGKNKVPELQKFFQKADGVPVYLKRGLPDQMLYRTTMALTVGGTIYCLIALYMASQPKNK
UniProt P23786: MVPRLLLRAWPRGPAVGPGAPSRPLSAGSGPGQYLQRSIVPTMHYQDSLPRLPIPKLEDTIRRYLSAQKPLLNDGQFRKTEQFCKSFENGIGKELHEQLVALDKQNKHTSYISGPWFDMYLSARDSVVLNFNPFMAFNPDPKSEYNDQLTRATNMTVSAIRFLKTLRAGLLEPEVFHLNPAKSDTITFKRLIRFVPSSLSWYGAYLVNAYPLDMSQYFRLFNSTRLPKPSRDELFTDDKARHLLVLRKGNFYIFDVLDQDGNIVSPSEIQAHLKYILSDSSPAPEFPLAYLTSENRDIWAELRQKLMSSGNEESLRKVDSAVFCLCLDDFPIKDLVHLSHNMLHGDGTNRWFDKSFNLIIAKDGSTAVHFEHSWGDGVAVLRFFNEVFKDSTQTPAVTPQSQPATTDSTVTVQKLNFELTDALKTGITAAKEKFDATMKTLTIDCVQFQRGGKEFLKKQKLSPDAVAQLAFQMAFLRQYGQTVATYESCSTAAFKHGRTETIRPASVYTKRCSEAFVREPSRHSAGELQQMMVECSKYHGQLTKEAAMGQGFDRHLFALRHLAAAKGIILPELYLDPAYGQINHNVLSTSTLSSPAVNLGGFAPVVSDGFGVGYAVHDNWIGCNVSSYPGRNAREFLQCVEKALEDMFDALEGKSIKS
UniProt P21964: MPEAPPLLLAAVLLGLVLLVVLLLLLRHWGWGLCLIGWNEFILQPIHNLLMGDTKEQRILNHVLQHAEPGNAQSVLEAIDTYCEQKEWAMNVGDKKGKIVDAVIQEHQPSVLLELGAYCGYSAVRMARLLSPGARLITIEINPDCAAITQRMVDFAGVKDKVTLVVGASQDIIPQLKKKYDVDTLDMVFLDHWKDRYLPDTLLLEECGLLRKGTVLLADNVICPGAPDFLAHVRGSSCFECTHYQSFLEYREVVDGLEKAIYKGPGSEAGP
UniProt P12074, whole entry, looked up: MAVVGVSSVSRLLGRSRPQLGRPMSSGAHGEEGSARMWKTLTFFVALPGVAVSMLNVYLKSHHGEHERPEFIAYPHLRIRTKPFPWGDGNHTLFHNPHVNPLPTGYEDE
UniProt Q6P4Q7: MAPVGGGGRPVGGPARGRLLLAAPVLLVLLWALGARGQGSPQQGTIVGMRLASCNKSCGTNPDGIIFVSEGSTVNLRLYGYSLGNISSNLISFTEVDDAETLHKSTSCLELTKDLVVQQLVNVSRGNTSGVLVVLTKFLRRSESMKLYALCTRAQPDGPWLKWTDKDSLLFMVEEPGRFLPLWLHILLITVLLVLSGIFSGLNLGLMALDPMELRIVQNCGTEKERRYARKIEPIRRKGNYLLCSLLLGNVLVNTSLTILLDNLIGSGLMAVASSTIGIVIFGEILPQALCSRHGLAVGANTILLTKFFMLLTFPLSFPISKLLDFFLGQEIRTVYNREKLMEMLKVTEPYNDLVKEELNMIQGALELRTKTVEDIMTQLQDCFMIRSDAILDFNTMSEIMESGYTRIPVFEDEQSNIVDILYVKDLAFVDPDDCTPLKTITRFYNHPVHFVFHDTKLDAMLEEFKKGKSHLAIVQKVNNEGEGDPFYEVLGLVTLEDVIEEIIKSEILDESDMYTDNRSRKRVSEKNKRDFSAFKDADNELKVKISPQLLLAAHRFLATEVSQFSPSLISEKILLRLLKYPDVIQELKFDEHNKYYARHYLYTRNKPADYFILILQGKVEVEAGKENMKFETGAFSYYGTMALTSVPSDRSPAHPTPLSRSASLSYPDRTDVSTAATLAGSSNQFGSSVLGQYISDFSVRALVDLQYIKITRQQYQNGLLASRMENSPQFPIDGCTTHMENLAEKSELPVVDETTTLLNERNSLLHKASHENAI
UniProt Q9BR76, whole entry, looked up: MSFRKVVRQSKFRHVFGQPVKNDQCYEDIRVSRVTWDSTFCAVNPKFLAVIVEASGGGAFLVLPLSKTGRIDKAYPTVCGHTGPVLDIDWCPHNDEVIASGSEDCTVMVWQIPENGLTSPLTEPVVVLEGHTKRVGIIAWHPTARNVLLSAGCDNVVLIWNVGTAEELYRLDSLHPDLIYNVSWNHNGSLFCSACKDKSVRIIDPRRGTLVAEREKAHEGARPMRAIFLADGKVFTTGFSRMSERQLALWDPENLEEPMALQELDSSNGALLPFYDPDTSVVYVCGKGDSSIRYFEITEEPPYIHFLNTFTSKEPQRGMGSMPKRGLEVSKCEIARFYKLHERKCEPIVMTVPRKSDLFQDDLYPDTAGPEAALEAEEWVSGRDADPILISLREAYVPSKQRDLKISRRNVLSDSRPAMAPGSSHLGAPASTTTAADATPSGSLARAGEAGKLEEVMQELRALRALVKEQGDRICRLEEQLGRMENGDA
UniProt Q9UIV1, whole entry, looked up: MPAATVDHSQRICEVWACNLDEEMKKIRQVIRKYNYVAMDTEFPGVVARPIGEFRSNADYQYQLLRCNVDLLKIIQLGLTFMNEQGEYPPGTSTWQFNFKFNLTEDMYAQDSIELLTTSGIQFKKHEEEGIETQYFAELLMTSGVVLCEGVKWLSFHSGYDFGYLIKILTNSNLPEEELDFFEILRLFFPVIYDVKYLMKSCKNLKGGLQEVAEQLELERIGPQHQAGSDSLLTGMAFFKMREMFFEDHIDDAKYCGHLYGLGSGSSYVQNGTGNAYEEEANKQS
UniProt Q9H0A8, whole entry, looked up: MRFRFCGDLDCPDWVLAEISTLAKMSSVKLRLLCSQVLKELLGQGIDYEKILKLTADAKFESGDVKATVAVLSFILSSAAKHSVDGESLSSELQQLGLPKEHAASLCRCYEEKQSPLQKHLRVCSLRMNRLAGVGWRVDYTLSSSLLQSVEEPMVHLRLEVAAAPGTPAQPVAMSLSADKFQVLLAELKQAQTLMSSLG
UniProt Q9H9Q2: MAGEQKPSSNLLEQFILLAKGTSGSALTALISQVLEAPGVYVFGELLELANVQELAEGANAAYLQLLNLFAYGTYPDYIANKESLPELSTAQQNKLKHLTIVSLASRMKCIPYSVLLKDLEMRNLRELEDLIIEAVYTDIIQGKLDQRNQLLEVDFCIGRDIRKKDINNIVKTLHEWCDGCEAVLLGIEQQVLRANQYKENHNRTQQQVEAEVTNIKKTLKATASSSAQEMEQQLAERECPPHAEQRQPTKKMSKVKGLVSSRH
UniProt P13073, whole entry, looked up: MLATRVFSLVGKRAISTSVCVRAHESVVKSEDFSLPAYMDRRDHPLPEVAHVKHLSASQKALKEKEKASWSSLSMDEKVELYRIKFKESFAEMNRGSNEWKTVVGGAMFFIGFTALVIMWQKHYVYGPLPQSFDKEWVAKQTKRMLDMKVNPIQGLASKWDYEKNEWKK
UniProt O95639, whole entry, looked up: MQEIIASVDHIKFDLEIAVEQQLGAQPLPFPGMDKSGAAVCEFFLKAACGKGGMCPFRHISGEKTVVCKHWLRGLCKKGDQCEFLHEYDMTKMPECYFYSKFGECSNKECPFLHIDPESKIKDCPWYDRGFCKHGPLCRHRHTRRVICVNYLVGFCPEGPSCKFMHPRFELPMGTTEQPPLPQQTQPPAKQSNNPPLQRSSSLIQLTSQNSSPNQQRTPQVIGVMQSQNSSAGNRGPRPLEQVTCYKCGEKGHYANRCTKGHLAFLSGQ
UniProt Q99439: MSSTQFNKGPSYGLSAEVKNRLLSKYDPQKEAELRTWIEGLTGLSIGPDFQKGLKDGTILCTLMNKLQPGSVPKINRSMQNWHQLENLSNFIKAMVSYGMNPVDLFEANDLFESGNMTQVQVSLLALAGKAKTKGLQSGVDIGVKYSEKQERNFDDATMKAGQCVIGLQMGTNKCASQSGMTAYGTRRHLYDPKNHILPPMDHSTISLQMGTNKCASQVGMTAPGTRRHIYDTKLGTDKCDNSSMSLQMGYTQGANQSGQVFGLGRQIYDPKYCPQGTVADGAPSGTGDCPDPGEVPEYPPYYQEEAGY
UniProt Q9BSW2: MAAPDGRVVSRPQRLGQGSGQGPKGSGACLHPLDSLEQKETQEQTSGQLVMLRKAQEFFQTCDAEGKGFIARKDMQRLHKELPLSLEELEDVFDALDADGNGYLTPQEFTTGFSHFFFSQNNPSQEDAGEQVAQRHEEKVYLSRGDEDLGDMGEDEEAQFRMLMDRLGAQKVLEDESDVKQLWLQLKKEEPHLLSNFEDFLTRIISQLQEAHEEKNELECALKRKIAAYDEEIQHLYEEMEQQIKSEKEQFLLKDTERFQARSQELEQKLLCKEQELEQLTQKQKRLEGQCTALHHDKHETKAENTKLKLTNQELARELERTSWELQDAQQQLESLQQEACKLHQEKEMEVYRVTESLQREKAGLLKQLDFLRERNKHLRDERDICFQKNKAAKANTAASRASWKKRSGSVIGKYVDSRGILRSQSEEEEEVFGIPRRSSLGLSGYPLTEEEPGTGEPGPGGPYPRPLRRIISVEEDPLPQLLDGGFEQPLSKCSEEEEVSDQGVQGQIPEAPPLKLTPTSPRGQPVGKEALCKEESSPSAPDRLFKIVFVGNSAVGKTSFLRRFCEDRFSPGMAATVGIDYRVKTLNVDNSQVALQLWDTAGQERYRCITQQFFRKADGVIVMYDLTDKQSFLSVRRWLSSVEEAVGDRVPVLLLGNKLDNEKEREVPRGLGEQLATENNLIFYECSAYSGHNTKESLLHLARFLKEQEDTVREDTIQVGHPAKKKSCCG
UniProt Q9UBI1, whole entry, looked up: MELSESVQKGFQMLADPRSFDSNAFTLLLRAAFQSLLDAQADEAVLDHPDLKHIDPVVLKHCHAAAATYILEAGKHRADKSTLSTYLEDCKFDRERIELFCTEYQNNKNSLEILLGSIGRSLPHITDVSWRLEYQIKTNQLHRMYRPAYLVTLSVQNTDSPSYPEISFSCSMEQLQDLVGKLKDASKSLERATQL
UniProt O75175, whole entry, looked up: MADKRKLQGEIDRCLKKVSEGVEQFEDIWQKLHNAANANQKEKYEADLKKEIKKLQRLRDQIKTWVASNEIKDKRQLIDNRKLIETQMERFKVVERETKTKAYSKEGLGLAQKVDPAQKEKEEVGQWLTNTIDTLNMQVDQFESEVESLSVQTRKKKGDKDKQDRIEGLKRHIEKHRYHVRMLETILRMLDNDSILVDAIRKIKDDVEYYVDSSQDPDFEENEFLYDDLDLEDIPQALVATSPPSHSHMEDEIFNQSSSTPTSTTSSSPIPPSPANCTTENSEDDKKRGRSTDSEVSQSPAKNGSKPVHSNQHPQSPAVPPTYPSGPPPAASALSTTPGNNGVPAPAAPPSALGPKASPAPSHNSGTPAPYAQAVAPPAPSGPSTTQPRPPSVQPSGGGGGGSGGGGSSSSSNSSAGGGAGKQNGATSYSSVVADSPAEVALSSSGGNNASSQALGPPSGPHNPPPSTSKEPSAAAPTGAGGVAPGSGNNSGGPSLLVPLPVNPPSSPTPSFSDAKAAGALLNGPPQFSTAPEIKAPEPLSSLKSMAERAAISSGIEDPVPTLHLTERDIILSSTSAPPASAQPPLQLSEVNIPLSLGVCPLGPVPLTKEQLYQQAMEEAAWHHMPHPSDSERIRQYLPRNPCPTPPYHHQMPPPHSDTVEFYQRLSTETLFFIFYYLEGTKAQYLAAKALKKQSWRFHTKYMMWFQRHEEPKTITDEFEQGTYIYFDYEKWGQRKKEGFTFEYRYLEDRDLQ
UniProt Q86VU5: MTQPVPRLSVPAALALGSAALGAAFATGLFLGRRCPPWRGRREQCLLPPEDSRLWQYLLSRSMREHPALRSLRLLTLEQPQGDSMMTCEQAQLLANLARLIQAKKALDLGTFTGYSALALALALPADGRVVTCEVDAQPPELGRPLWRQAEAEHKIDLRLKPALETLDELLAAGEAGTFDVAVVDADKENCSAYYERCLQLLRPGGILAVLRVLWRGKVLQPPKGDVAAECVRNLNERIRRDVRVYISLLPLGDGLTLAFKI

[1] = compound: Cc1nc(Nc2n[nH]c3c2CN(C(=O)N[C@H](CN(C)C)c2ccccc2)C3(C)C)c2sccc2n1
How it was run: as §1

dasatinib = compound: Cc1nc(Nc2ncc(C(=O)Nc3c(C)cccc3Cl)s2)cc(N2CCN(CCO)CC2)n1 [dasatinib]
How it was run: as §1

[2] = compound: Cc1ncc(-c2ccnc(Nc3ccc(S(C)(=O)=O)cc3)n2)n1C(C)C
How it was run: as §1

[3] = compound: Cn1cc(-c2ccc3c(c2)CCN3C(=O)Cc2cccc(C(F)(F)F)c2)c2c(N)ncnc21
How it was run: as §1

quisinostat = compound: Cn1cc(CNCC2CCN(c3ncc(C(=O)NO)cn3)CC2)c2ccccc21 [quisinostat]
How it was run: as §1

tipifarnib = compound: Cn1cncc1[C@@](N)(c1ccc(Cl)cc1)c1ccc2c(c1)c(-c1cccc(Cl)c1)cc(=O)n2C [tipifarnib]
How it was run: as §1

[4] = compound: NC(=O)Nc1cc(-c2cccc(F)c2)sc1C(=O)N[C@H]1CCCNC1
How it was run: as §1

[5] = compound: NC(=O)c1cnc(N[C@@H]2CCCC[C@@H]2N)nc1Nc1cccc(-n2nccn2)c1
How it was run: as §1

[6] = compound: NC1(c2ccc(-c3nc4ccn5c(=O)[nH]nc5c4cc3-c3ccccc3)cc2)CCC1
How it was run: as §1

Measured: log2 fold change

CNOT10 (UniProt Q9H9A5)
inactive: nilotinib -0.014 | [1] -0.007 | dasatinib -0.061 | [2] 0.019 | [3] -0.013 | quisinostat -0.01 | tipifarnib -0.047 | [4] 0.063 | [5] 0.018 | [6] -0.015

COX7A2L (UniProt O14548)
inactive: nilotinib 0.003 | [1] 0.063 | dasatinib 0.056 | [2] 0.078 | [3] 0.014 | quisinostat -0.063 | tipifarnib -0.011 | [4] -0.008 | [5] -0.03 | [6] -0.033

CPT2 (UniProt P23786)
inactive: nilotinib -0.033 | [1] -0.01 | dasatinib -0.101 | [2] 0.013 | [3] 0.065 | quisinostat -0.131 | tipifarnib -0.011 | [4] 0.035 | [5] -0.013 | [6] -0.001

COMT (UniProt P21964)
inactive: nilotinib -0.007 | [1] -0.029 | dasatinib -0.02 | [2] -0.018 | [3] 0.02 | quisinostat -0.08 | tipifarnib 0.013 | [4] 0.028 | [5] 0.005 | [6] 0.009

Looked up one by one from above (2):
CNOT10 (UniProt Q9H9A5)
inactive: nilotinib -0.014 | [1] -0.007 | dasatinib -0.061 | [2] 0.019 | [3] -0.013 | quisinostat -0.01 | tipifarnib -0.047 | [4] 0.063 | [5] 0.018 | [6] -0.015

CPT2 (UniProt P23786)
inactive: nilotinib -0.033 | [1] -0.01 | dasatinib -0.101 | [2] 0.013 | [3] 0.065 | quisinostat -0.131 | tipifarnib -0.011 | [4] 0.035 | [5] -0.013 | [6] -0.001

The results go on:

COL14A1 (UniProt Q05707)
inactive: nilotinib 0.072 | [1] 0.134 | dasatinib 0.092 | [2] 0.07 | [3] -0.022 | quisinostat -0.03 | tipifarnib -0.085 | [4] -0.01 | [5] 0.063 | [6] -0.062

COPS4 (UniProt Q9BT78)
inactive: nilotinib 0.016 | [1] 0.001 | dasatinib 0.002 | [2] -0.01 | [3] 0 | quisinostat 0.074 | tipifarnib 0.008 | [4] -0.01 | [5] 0.013 | [6] 0.024

COX6A1 (UniProt P12074)
inactive: nilotinib 0.093 | [1] -0.087 | dasatinib 0.084 | [2] -0.258 | [3] 0.104 | quisinostat 0.021 | tipifarnib -0.081 | [4] -0.101 | [5] -0.003 | [6] 0.17

CNNM4 (UniProt Q6P4Q7)
inactive: nilotinib -0.001 | [1] 0.045 | dasatinib -0.001 | [2] 0.093 | [3] -0.005 | quisinostat -0.011 | tipifarnib 0.055 | [4] -0.006 | [5] -0.027 | [6] -0.066

CORO1B (UniProt Q9BR76)
inactive: nilotinib 0.001 | [1] -0.026 | dasatinib 0.002 | [2] -0.015 | [3] -0.007 | quisinostat 0.01 | tipifarnib 0.012 | [4] -0.001 | [5] 0.008 | [6] -0.014

CNOT7 (UniProt Q9UIV1)
inactive: nilotinib 0.001 | [1] -0.009 | dasatinib -0.005 | [2] 0.009 | [3] 0.024 | quisinostat 0.008 | tipifarnib -0.045 | [4] 0.013 | [5] 0.014 | [6] 0.002

COMMD4 (UniProt Q9H0A8)
inactive: nilotinib -0.025 | [1] 0.017 | dasatinib -0.078 | [2] 0.054 | [3] 0.048 | quisinostat -0.043 | tipifarnib 0 | [4] 0.012 | [5] -0.03 | [6] 0

COLGALT1 (UniProt Q8NBJ5)
inactive: nilotinib 0.005 | [1] -0.003 | dasatinib -0.021 | [2] -0.021 | [3] -0.007 | quisinostat -0.002 | tipifarnib -0.011 | [4] -0.007 | [5] 0.006 | [6] -0.02

COPG2 (UniProt Q9UBF2)
inactive: nilotinib 0.024 | [1] -0.002 | dasatinib -0.038 | [2] 0.008 | [3] 0.004 | quisinostat -0.006 | tipifarnib -0.017 | [4] 0.017 | [5] -0.013 | [6] 0.002

COL15A1 (UniProt P39059)
inactive: nilotinib 0.063 | [1] 0.018 | dasatinib 0.063 | [2] -0.026 | [3] 0.008 | quisinostat 0.007 | tipifarnib -0.046 | [4] 0.009 | [5] 0.023 | [6] -0.068

COMMD2 (UniProt Q86X83)
inactive: nilotinib 0.13 | [1] 0.049 | dasatinib -0.016 | [2] -0.007 | [3] 0.025 | quisinostat 0.029 | tipifarnib 0.064 | [4] 0.03 | [5] -0.034 | [6] 0.055

COA4 isoform 2 (UniProt Q9NYJ1)
inactive: nilotinib -0.01 | [1] 0.054 | dasatinib 0.012 | [2] 0.103 | [3] -0.017 | quisinostat -0.077 | tipifarnib 0.087 | [4] -0.038 | [5] -0.016 | [6] -0.026

COX11 (UniProt Q9Y6N1)
inactive: nilotinib 0.128 | [1] -0.061 | dasatinib 0.025 | [2] -0.046 | [3] -0.025 | quisinostat 0.009 | tipifarnib -0.129 | [4] 0.002 | [5] -0.024 | [6] 0.005

COPS7B (UniProt Q9H9Q2)
inactive: nilotinib -0.057 | [1] 0.025 | dasatinib -0.014 | [2] 0.097 | [3] -0.03 | quisinostat -0.017 | tipifarnib 0.104 | [4] -0.021 | [5] 0.019 | [6] -0.021

COX4I1 (UniProt P13073)
inactive: nilotinib 0.038 | [1] -0.01 | dasatinib -0.016 | [2] 0.019 | [3] -0.03 | quisinostat 0.024 | tipifarnib 0.075 | [4] 0.016 | [5] -0.046 | [6] 0.011

CPSF4 (UniProt O95639)
inactive: nilotinib -0.007 | [1] 0 | dasatinib -0.133 | [2] 0.05 | [3] -0.009 | quisinostat 0.017 | tipifarnib 0.021 | [4] 0.011 | [5] -0.047 | [6] 0.013

COG4 (UniProt Q9H9E3)
inactive: nilotinib -0.038 | [1] -0.01 | dasatinib -0.093 | [2] 0.008 | [3] 0.048 | quisinostat -0.047 | tipifarnib 0.006 | [4] 0.004 | [5] 0.001 | [6] 0.055

CNDP2 (UniProt Q96KP4)
inactive: nilotinib 0.039 | [1] -0.023 | dasatinib 0.017 | [2] 0.051 | [3] -0.05 | quisinostat -0.074 | tipifarnib -0.008 | [4] 0.004 | [5] 0.013 | [6] -0.003

CNN2 (UniProt Q99439)
inactive: nilotinib -0.017 | [1] 0.007 | dasatinib -0.031 | [2] -0.009 | [3] -0.045 | quisinostat -0.013 | tipifarnib -0.003 | [4] -0.034 | [5] -0.007 | [6] 0.017

CRACR2A isoform 2 (UniProt Q9BSW2)
inactive: nilotinib 0.016 | [1] -0.005 | dasatinib 0.026 | [2] -0.035 | [3] 0.042 | quisinostat -0.108 | tipifarnib 0.003 | [4] 0.115 | [5] -0.09 | [6] -0.027

COMMD3 (UniProt Q9UBI1)
inactive: nilotinib 0.009 | [1] 0.006 | dasatinib -0.066 | [2] 0.07 | [3] -0.013 | quisinostat -0.006 | tipifarnib 0.03 | [4] -0.043 | [5] -0.01 | [6] -0.017

CNOT3 (UniProt O75175)
inactive: nilotinib 0.011 | [1] -0.02 | dasatinib -0.006 | [2] 0.024 | [3] 0.013 | quisinostat 0.188 | tipifarnib -0.037 | [4] 0.01 | [5] 0.016 | [6] -0.004

COG3 (UniProt Q96JB2)
inactive: nilotinib -0.02 | [1] -0.023 | dasatinib -0.13 | [2] -0.002 | [3] 0.023 | quisinostat -0.097 | tipifarnib 0.022 | [4] 0.044 | [5] 0.024 | [6] -0.083

COMTD1 (UniProt Q86VU5)
inactive: nilotinib 0.311 | [1] -0.273 | dasatinib -0.058 | [2] 0.014 | [3] 0.001 | quisinostat 0.021 | tipifarnib -0.135 | [4] -0.031 | [5] 0.093 | [6] -0.002

CPSF3 (UniProt Q9UKF6)
inactive: nilotinib -0.009 | [1] 0.01 | dasatinib -0.003 | [2] -0.005 | [3] 0.026 | quisinostat 0.016 | tipifarnib -0.013 | [4] -0.004 | [5] -0.014 | [6] 0.017
